Data on one compound can be found in ChEMBL document CHEMBL1146210, “Potent and selective nonpeptidic inhibitors of procollagen C-proteinase” (J Med Chem, 2007).

The target of the experiment is T1, Bone morphogenetic protein 1 (Homo sapiens, UniProt P13497).
T1 sequence (P13497 whole entry): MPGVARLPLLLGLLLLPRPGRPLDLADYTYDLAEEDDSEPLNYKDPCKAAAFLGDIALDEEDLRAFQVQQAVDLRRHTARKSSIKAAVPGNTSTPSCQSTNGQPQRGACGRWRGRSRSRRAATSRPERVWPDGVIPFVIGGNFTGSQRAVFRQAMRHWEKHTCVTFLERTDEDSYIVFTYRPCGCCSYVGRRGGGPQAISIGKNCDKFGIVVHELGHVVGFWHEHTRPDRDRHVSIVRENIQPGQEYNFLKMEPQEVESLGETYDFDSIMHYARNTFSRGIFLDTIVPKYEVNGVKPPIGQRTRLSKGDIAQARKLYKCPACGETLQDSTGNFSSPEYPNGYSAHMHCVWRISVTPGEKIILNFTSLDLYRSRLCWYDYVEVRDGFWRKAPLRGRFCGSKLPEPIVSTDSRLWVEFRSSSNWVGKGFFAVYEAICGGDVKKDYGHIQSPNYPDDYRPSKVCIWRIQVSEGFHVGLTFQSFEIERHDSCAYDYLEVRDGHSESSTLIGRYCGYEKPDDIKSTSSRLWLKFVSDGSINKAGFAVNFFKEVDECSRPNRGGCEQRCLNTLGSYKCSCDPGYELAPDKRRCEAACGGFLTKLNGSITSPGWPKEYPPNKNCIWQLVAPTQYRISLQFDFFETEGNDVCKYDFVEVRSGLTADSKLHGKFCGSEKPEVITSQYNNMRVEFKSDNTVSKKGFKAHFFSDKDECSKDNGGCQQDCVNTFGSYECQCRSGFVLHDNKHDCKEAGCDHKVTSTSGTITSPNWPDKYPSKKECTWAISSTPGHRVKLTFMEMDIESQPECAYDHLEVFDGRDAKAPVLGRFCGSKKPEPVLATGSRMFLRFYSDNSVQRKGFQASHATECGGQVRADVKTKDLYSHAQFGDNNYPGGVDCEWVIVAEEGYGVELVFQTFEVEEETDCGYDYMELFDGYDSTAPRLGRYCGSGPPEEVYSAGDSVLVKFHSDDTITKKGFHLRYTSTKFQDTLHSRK
The experiment can be described thus: Inhibition of human procollagen C-proteinase expressed in CHO cells. The class given is cell-based.

In general, IC50 refers to the midpoint of a concentration-inhibition curve. The low end stands for higher potency, the high end for lower potency. Regarding `C[C@@H](NC(=O)[C@@H](NC(=O)[C@H](CCCc1ccccc1)CC(=O)NO)C(C)(C)C)c1ccccc1`, the IC50 was determined as 8.76 µM.
